Results are given in words; binding and its absence hold for the method and conditions named. In cells and extracts the contact can be indirect. Here binding means that the protein was enriched with, or labelled near, the bait; the list need not be complete.
Target: CD147 (mouse (endogenous in thymocytes of C57BL/6 mice)) (UniProt P18572)
Test: affinity purification with mass spectrometry; co-IP from mouse thymocyte lysate (IP lysis/wash buffer, Pierce Co-IP Kit) with anti-CD147 antibody; IgG as negative control; eluate on 10% SDS-PAGE, silver stain, trypsin digest, LTQ mass spectrometer; proteins of the IgG group removed; two independent experiments

Protein sequences, listed by entry. Tags and fused reporters are not part of them. Lines headed by an entry give the natural chain unless they say otherwise; changes in a name come on top.
UniProt P18572: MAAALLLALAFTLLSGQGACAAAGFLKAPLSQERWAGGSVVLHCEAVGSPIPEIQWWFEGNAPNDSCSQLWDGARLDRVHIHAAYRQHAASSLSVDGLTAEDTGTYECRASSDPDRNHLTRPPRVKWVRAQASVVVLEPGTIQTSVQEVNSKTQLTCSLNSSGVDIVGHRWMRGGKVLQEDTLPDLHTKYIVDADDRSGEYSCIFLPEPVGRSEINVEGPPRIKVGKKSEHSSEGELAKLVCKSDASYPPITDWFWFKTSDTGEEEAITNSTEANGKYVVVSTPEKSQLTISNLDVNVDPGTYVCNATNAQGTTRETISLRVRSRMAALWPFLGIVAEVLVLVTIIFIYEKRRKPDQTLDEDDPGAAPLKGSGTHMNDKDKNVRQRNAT
UniProt P07356: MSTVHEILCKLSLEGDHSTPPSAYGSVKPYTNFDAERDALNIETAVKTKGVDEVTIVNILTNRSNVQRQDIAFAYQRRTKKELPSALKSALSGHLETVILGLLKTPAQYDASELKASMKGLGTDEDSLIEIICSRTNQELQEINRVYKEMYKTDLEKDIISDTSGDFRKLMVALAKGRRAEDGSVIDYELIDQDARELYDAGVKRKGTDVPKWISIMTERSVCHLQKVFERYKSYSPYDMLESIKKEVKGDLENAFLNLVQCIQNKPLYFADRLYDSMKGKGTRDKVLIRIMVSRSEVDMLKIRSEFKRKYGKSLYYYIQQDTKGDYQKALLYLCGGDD

binding: binds
Substance: Annexin A2 (from UniProt P07356 1-339)

— publication PMC7853129
